We go through 2 molecules from paper PMC12529657.

Sequences of proteins named here, by UniProt entry; tags and fusion partners are left off.
UniProt F5HFD2: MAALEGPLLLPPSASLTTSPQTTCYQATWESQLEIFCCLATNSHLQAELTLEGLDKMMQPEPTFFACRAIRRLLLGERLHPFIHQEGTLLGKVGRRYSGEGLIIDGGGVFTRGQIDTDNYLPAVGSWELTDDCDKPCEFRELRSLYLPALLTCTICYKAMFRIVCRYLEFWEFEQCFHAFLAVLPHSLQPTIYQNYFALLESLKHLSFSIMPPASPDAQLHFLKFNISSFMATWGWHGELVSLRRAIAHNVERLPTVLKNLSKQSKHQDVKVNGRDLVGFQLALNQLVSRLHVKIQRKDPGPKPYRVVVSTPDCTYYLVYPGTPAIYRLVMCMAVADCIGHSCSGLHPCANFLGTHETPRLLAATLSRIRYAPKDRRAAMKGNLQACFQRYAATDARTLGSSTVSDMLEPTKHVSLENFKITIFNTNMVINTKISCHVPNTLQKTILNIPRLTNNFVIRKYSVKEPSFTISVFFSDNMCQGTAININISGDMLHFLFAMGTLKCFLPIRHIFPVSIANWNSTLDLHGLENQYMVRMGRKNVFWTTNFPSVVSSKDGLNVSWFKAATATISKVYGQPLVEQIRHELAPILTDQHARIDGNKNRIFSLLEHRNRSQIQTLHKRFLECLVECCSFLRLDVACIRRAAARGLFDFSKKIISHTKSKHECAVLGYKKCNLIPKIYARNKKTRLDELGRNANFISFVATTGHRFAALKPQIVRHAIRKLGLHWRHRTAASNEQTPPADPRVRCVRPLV

These are yes or no findings as the source states them, for the method shown. Binding seen in cells or lysates may run through a third protein. Some results given as binding are weak or reduced against the parent protein; the word gives no strength. For some assays here: Where a sequence is shown, tags or fusion partners need not be part of it.

Test [1] concerns the target ORF24-2xStrep (wild type) (Kaposi's sarcoma-associated herpesvirus (KSHV)) (UniProt F5HFD2). In words: co-IP.
In test [2] the target is HA-ORF24 (wild type, KSHV BAC16 HA-ORF24/FLAG-ORF34) (Kaposi's sarcoma-associated herpesvirus (KSHV)) (UniProt F5HFD2). In words: co-IP; anti-HA magnetic beads on RIPA lysates (1-2 mg) of iSLK cells carrying HA-ORF24/FLAG-ORF34 KSHV BAC16 (wild type or ORF24 mutant), 48 h post reactivation; overnight in 150 mM NaCl, 50 mM Tris pH 7.4; washes with 0.05% NP-40; western blot for Rpb1 and FLAG-ORF34. A general note: Immunoblotting shows a protein as a band on a membrane.

B1: ORF34 (transfected) (protein, UniProt Q2HR98 1-327)
chain: MFALSSLVSEGDPEVTSRYVKGVQLALDLSENTPGQFKLIETPLNSFLLVSNVMPEVQPICSGLPALRPDFSNLHLPRLEKLQRVLGQGFGAAGEEIALDPSHVETHEKGQVFYNHYATEEWTWALTLNKDALLREAVDGLCDPGTWKGLLPDDPLPLLWLLFNGPASFCRADCCLYKQHCGYPGPVLLPGHMYAPKRDLLSFVNHALKYTKFLYGDFSGTWAAACRPPFATSRIQRVVSQMKIIDASDTYISHTCLLCHIYQQNSIIAGQGTHVGGILLLSGKGTQYITGNVQTQRCPTTGDYLIIPSYDIPAIITMIKENGLNQL
With B1, the binding entry in test [1] is “binds”.

B2: FLAG-ORF34 (KSHV BAC16 HA-ORF24/FLAG-ORF34) (protein, UniProt Q2HR98 1-327)
chain: MFALSSLVSEGDPEVTSRYVKGVQLALDLSENTPGQFKLIETPLNSFLLVSNVMPEVQPICSGLPALRPDFSNLHLPRLEKLQRVLGQGFGAAGEEIALDPSHVETHEKGQVFYNHYATEEWTWALTLNKDALLREAVDGLCDPGTWKGLLPDDPLPLLWLLFNGPASFCRADCCLYKQHCGYPGPVLLPGHMYAPKRDLLSFVNHALKYTKFLYGDFSGTWAAACRPPFATSRIQRVVSQMKIIDASDTYISHTCLLCHIYQQNSIIAGQGTHVGGILLLSGKGTQYITGNVQTQRCPTTGDYLIIPSYDIPAIITMIKENGLNQL
Consider B2, for which, in test [2], the binding entry is recorded as “binds”.
